# Paper PMC8961534, “Interaction with the Assembly Chaperone Ump1 Promotes Incorporation of the β7 Subunit into Half-Proteasome Precursor Complexes Driving Their Dimerization” (Biomolecules, 2022)
# Chains of the proteins cited; added tags and fusions are not shown. Residues count along the entry.
# UniProt P30657, residues 1-33: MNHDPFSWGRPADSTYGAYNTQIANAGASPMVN
# Results are given in words; binding and its absence hold for the method and conditions named. Some entries that bind do so weakly or less than the wild type. For some assays here: Where a sequence is shown, tags or fusion partners need not be part of it.
# Experiments:
# [1] = biological target: T1, full-length Ump1-6His (S. cerevisiae) (UniProt P38293); assay: fluorescence microscopy-based on-bead binding assay; Ump1-6His or ^17–148Ump1-6His from E. coli extracts bound to Ni-NTA beads and washed (20 mM imidazole); extracts with mNeonGreen fusion proteins, adjusted by fluorescence, added 1 h, 4 °C; beads imaged, quantified with Fiji (n = 5), empty vector background subtracted; only the target purified
# T1 sequence: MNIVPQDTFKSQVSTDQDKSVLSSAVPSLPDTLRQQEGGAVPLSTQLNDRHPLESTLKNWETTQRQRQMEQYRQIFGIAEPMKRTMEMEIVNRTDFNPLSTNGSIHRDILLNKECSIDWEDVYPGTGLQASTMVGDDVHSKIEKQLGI
# [2] = biological target: ^17–148Ump1-6His (S. cerevisiae) (UniProt P38293); assay: as above
substance,measurement,setting,value
β7 propeptide (^1–33β7) fused to mNeonGreen and 2HA (from UniProt P30657 1-33) (domain or fragment),binding,[1],binds
same,binding,[2],no binding
